The supplement of paper PMC8728848
Some of the results follow.

Experiments:
Assay in all cases: glycan array binding signal (z-score within array); higher = stronger binding
Settings in all cases: glycan notation: IUPAC condensed, linker removed
[1] = molecular target: GlcNAc(b1-4)GlcNAc(b1-4)GlcNAc(b1-4)GlcNAc(b1-4)GlcNAc(b1-4)GlcNAc
In short: (§1)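 Negative Z-scores can be read as non-binding. The Z-score is calculated within each array and then averaged across arrays of one protein sequence at different concentrations or buffers and across linkers. Arrays, 3228 in all, were curated from the Consortium for Functional Glycomics database and kept only where the protein sequence was available.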

[2] = molecular target: GlcNAc(b1-4)[GlcNAc(b1-6)]GalNAc
In short: as §1

[3] = molecular target: GlcNAc(b1-6)Gal(b1-4)GlcNAc
In short: as §1

GlcNAc(b1-6)GalNAc = molecular target: GlcNAc(b1-6)GalNAc
In short: as §1

[4] = molecular target: GlcNAc6S(b1-3)Gal(b1-4)GlcNAc
In short: as §1

Kdn(a2-3)Gal(b1-3)GalNAc = molecular target: Kdn(a2-3)Gal(b1-3)GalNAc
In short: as §1

Kdn(a2-3)Gal(b1-3)GlcNAc = molecular target: Kdn(a2-3)Gal(b1-3)GlcNAc
In short: as §1

Kdn(a2-3)Gal(b1-4)Glc = molecular target: Kdn(a2-3)Gal(b1-4)Glc
In short: as §1

Kdn(a2-3)Gal(b1-4)GlcNAc = molecular target: Kdn(a2-3)Gal(b1-4)GlcNAc
In short: as §1

[5] = molecular target: Kdn(a2-3)Gal(b1-4)[Fuc(a1-3)]GlcNAc
In short: as §1

Kdn(a2-6)Gal(b1-4)GlcNAc = molecular target: Kdn(a2-6)Gal(b1-4)GlcNAc
In short: as §1

[6] = molecular target: Man(a1-2)Man(a1-2)Man(a1-3)Man
In short: as §1

[7] = molecular target: Man(a1-2)Man(a1-2)Man(a1-6)[Man(a1-3)]Man
In short: as §1

Man(a1-2)Man(a1-3)Man = molecular target: Man(a1-2)Man(a1-3)Man
In short: as §1

[8] = molecular target: Man(a1-2)Man(a1-3)[Man(a1-2)Man(a1-6)]Man
In short: as §1

[9] = molecular target: Man(a1-2)Man(a1-3)[Man(a1-2)Man(a1-6)]Man(a1-6)[Man(a1-2)Man(a1-2)Man(a1-3)]Man
In short: as §1

[10] = molecular target: Man(a1-2)Man(a1-3)[Man(a1-2)Man(a1-6)]Man(a1-6)[Man(a1-2)Man(a1-2)Man(a1-3)]Man(b1-4)GlcNAc(b1-4)GlcNAc
In short: as §1

[11] = molecular target: Man(a1-2)Man(a1-3)[Man(a1-6)]Man(a1-6)[Man(a1-2)Man(a1-3)]Man(b1-4)GlcNAc(b1-4)GlcNAc
In short: as §1

[12] = molecular target: Man(a1-2)Man(a1-6)[Man(a1-3)]Man(a1-6)[Man(a1-2)Man(a1-2)Man(a1-3)]Man
In short: as §1

[13] = molecular target: Man(a1-2)Man(a1-6)[Man(a1-3)]Man(a1-6)[Man(a1-2)Man(a1-2)Man(a1-3)]Man(b1-4)GlcNAc(b1-4)GlcNAc
In short: as §1

Man(a1-3)[Man(a1-6)]Man = molecular target: Man(a1-3)[Man(a1-6)]Man
In short: as §1

[14] = molecular target: Man(a1-3)[Man(a1-6)]Man(a1-6)[Man(a1-2)Man(a1-3)]Man(b1-4)GlcNAc(b1-4)GlcNAc
In short: as §1

[15] = molecular target: Man(a1-3)[Man(a1-6)]Man(a1-6)[Man(a1-3)]Man
In short: as §1

[16] = molecular target: Man(a1-3)[Man(a1-6)]Man(a1-6)[Man(a1-3)]Man(b1-4)GlcNAc(b1-4)GlcNAc
In short: as §1

[17] = molecular target: Man(a1-3)[Man(a1-6)]Man(b1-4)GlcNAc(b1-4)GlcNAc
In short: as §1

[18] = molecular target: Man(a1-3)[Man(a1-6)]Man(b1-4)GlcNAc(b1-4)[Fuc(a1-6)]GlcNAc
In short: as §1

Man(a1-6)Man = molecular target: Man(a1-6)Man
In short: as §1

Man(b1-4)GlcNAc = molecular target: Man(b1-4)GlcNAc
In short: as §1

MurNAc(b1-4)GlcNAc = molecular target: MurNAc(b1-4)GlcNAc
In short: as §1

Neu5Ac(a2-3)Gal = molecular target: Neu5Ac(a2-3)Gal
In short: as §1

[19] = molecular target: Neu5Ac(a2-3)Gal(b1-3)GalNAc
In short: as §1

[20] = molecular target: Neu5Ac(a2-3)Gal(b1-3)GalNAc(b1-3)Gal(a1-4)Gal(b1-4)Glc
In short: as §1

[21] = molecular target: Neu5Ac(a2-3)Gal(b1-3)GalNAc(b1-4)Gal(b1-4)Glc
In short: as §1

[22] = molecular target: Neu5Ac(a2-3)Gal(b1-3)GalNAc(b1-4)[Neu5Ac(a2-3)]Gal(b1-4)Glc
In short: as §1

[23] = molecular target: Neu5Ac(a2-3)Gal(b1-3)GalNAc(b1-4)[Neu5Ac(a2-8)Neu5Ac(a2-3)]Gal(b1-4)Glc
In short: as §1

[24] = molecular target: Neu5Ac(a2-3)Gal(b1-3)GalNAc6S
In short: as §1

[25] = molecular target: Neu5Ac(a2-3)Gal(b1-3)GlcNAc
In short: as §1

B1: OS9 (Arabidopsis thaliana) (protein)
chain: MRGSHHHHHHGMASMTGGQQMGRDLYDDDDKSRLQIFPAHLVGTFSRNNREPKYKIEFLPEDSPFHPGDNLESMVMLDKHGNRFLCYLPKEEKATSGWTSSQQNISTVMMETQQLVKLKTPDELLQPLSEKCLFRQEGWWSYEFCHQKYVRQLHVEDENKIVQEFFLGTFDPEATAAFNQTVSDASTDASQRYHSHVYTNGTTCDLTGSPREVEVRFVCAETRAMVTSITELSTCKYALTVQCPTLCKHPLFQLEKPVSHTIHCNAIPVEEDATRNKEEQAVDESPKMIADS
glycan array binding signal (z-score) [1]: -0.45
glycan array binding signal (z-score) [2]: -0.3
glycan array binding signal (z-score) [3]: 0.424
glycan array binding signal (z-score) (GlcNAc(b1-6)GalNAc): -0.857
glycan array binding signal (z-score) [4]: -0.68
glycan array binding signal (z-score) (Kdn(a2-3)Gal(b1-3)GalNAc): 1.41
glycan array binding signal (z-score) (Kdn(a2-3)Gal(b1-3)GlcNAc): -1.07
glycan array binding signal (z-score) (Kdn(a2-3)Gal(b1-4)Glc): 0.473
glycan array binding signal (z-score) (Kdn(a2-3)Gal(b1-4)GlcNAc): 0.482
glycan array binding signal (z-score) [5]: -0.824
glycan array binding signal (z-score) (Kdn(a2-6)Gal(b1-4)GlcNAc): -0.701
glycan array binding signal (z-score) [6]: -0.763
glycan array binding signal (z-score) [7]: 0.074
glycan array binding signal (z-score) (Man(a1-2)Man(a1-3)Man): -1.25
glycan array binding signal (z-score) [8]: 0.462
glycan array binding signal (z-score) [9]: -0.133
glycan array binding signal (z-score) [10]: -0.644
glycan array binding signal (z-score) [11]: -0.139
glycan array binding signal (z-score) [12]: -0.146
glycan array binding signal (z-score) [13]: -0.323
glycan array binding signal (z-score) (Man(a1-3)[Man(a1-6)]Man): -0.078
glycan array binding signal (z-score) [14]: -1.13
glycan array binding signal (z-score) [15]: -0.163
glycan array binding signal (z-score) [16]: 1.43
glycan array binding signal (z-score) [17]: -0.77
glycan array binding signal (z-score) [18]: 0.384
glycan array binding signal (z-score) (Man(a1-6)Man): 1.8
glycan array binding signal (z-score) (Man(b1-4)GlcNAc): -0.806
glycan array binding signal (z-score) (MurNAc(b1-4)GlcNAc): -0.22
glycan array binding signal (z-score) (Neu5Ac(a2-3)Gal): -0.482
glycan array binding signal (z-score) [19]: -0.107
glycan array binding signal (z-score) [20]: -0.037
glycan array binding signal (z-score) [21]: -1.9
glycan array binding signal (z-score) [22]: -0.741
glycan array binding signal (z-score) [23]: -0.334
glycan array binding signal (z-score) [24]: -0.934
glycan array binding signal (z-score) [25]: -0.018
